According to patent US6989435B2, “Compounds and methods to inhibit or augment an inflammatory response” (Cambridge University Technical Services Ltd., priority 1997, dated 2006):
Part of at least one peptide drawing is inferred or uncertain, most often the ends. Positions of bridges follow the written chain, without caps; N, C: chain ends. Non-standard residues stand in square brackets, D forms with d. Residues, ends and D or L forms follow the SMILES beside them. ξ: configuration not given here. ξI = CCC(C)C(N)C(=O)O

Test system: chemokine receptors on THP-1 cells
Assay: Binding to THP-1 cells
Set-up: species or system human
Method: In general, specific binding is calculated as the amount of labeled agent bound in the absence of cold competitor minus the amount of labeled agent bound in the presence of cold competitor. The amount of specific binding in the presence of varied amounts of cold competitor can be used to determine the association constant for the agent, as well as the number of binding sites on the cell for the agent, using, for example, Scatchard Analysis. The agent may be labeled by radiolabeling (e.g., iodination) or with a suitable biochemical tag (e.g., biotin) or by addition of a photoactivatable crosslinking group. […]
For example, monocytes are suspended in RPMI 1640 medium without bicarbonate containing 0.2% bovine serum albumin and 0.1% azide. […] Filters are washed with 4 ml of cold wash buffer, and the radioactivity bound to the filters is counted in a γ-counter.
For competition studies, the IC50 is calculated with a curve fitting program (GraFit, Erithacus Software, London), using a four-parameter logistic, cpmbound=cpmmax/(1+([L]/IC50)^S)+cpmns, where cpmmax represents the binding without competitor, [L] is the competitor concentration, cpmns is the non-specific binding, and s is the slope factor. […]

**Q.** For CCC(C)C1NC(=O)[C@@H](CCC(N)=O)NC(=O)[C@H](N)CSSC[C@H](C(=O)O)NC(=O)[C@@H](CC(C)C)NC(=O)[C@@H](CC(=O)O)NC(=O)[C@H]2CCCN2C(=O)[C@@H](CCCCN)NC(=O)[C@@H](CCC(N)=O)NC(=O)[C@@H](CCCCN)NC(=O)[C@@H](Cc2c[nH]c3ccccc23)NC1=O (stereo partly drawn) [CRD-Cys13Leu4ile11peptide 3] (H-[dC][dQ][ξI][dW][dK][dQ][dK][dP][dD][dL][dC]-OH; disulfide 1-11; N-terminus and C-terminus assumed), which “association constant for chemokine receptors on THP-1 cells” value is on record?
**A.** The value was 100 to 500 nM.
